# Test results reported in the supplement of paper PMC3334620.
# In all, about 33,000 sequences were measured (“E-score (-0.5 to 0.5)”: median about -0.0034, highest 2% from about 0.25 on). The list shows a part of the results.
# Biological target: T1, Yap3 (UniProt P38749)
# T1 sequence: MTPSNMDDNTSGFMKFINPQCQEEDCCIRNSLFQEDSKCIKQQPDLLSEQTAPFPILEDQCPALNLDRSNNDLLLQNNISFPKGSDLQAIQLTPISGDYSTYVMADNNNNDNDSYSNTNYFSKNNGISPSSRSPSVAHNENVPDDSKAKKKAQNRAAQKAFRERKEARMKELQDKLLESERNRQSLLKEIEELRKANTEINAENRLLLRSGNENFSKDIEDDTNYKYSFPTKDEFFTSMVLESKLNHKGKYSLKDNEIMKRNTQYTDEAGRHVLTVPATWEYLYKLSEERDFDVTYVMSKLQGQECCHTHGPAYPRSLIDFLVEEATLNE
# Assay: PBM E-score (8-mer binding enrichment) (E-score (-0.5 to 0.5)); higher = stronger / more preferred TF binding
# Details: protein concentration: 100 nM; construct: GST-full length
# Summary of the method: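 GST-tagged yeast TFs (full-length or DNA-binding domain) were made by PURExpress in vitro transcription/translation and applied at about 100-200 nM to universal all-10-mer Agilent arrays. The arrays were made double-stranded by primer extension, on fresh or once-stripped slides. Bound protein was detected with fluorescent anti-GST, and scans were normalised with masliner. Each ungapped eight-base word, pooled with its reverse complement, received an E-score (modified Wilcoxon-Mann-Whitney statistic) from the Universal PBM Analysis Suite.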
row,Sequence,PBM E-score
1,CCCGACTA,-0.102
2,GCAGGGGC,-0.239
3,AGAAACCG,0.00024
4,GTCTGATA,-0.0676
5,CTCGACGA,-0.00087
6,CCTGCTCG,-0.176
7,GCCAATCC,-0.0933
8,CTCAGGGA,-0.306
9,GATCGCTA,0.0442
10,GCACTGGA,-0.128
11,AAAGTAGA,0.0361
12,ATGCGGCA,-0.0382
13,ATAATCAA,0.139
14,CCATCCGA,0.00547
15,ATTTGACA,0.141
16,AAACGCAT,-0.0739
17,TATGATAA,0.228
18,TCGGGAAA,0.0336
19,GTCTAATA,-0.0245
20,CTAAGGGC,-0.105
21,CGGCGGAG,-0.188
22,GCAATTTA,0.139
23,AGAGTGCC,-0.123
24,GTTTCCAA,0.0773
25,GGGTCAAA,-0.0112

row,Sequence,PBM E-score
1,AGTCCCTA,-0.219
2,ATAGGATA,0.073
3,ATGCGCAG,-0.191
4,AACTTACC,0.0604
5,GACTAAAA,0.0994
6,ACGTATAG,0.0089
7,CTAACAAC,0.173
8,AGTACTTG,0.0831
9,CGATCAGA,-0.165
10,CGAATATA,0.148
11,ACCTCAAT,0.0286
12,AAGTTTCG,0.0152
13,AAGTGATA,0.127
14,TAATTGGA,0.102
15,CGACCGCC,-0.115
16,TAAAATCA,0.142
17,CACGGAGA,-0.0952
18,AACATGTT,0.0459
19,CTCCAGGA,-0.133
20,GCCGATAA,-0.0129
21,CGGGCACA,-0.102
22,GGAGCAAA,0.016
23,CGGGGCGC,-0.263
24,ACGGCGGG,-0.059
25,ATGTAATG,0.151

row,Sequence,PBM E-score
1,AACAGGCC,-0.258
2,CCAAACCC,-0.00817
3,CAAGCCTC,-0.115
4,TTCAGAAA,-0.104
5,AAAAGCCC,-0.145
6,AGTGAGGA,-0.0477
7,AAAGCTTG,-0.0115
8,GGGTTCTA,-0.166
9,CCTTACCC,-0.0277
10,GCGCAGGA,-0.226
11,CTTCTATA,0.0204
12,CATACGAG,-0.12
13,AATACCCT,-0.0814
14,AGTCAATA,0.0842
15,GCTTTGCC,-0.238
16,AGCGGCGA,0.0107
17,CCGGTATA,-0.0704
18,ACGGATCA,0.0642
19,AAATTCTA,0.0402
20,GCTTCCAA,-0.0913
21,CCCGCACA,-0.144
22,AAGGTTGT,0.0702
23,AACCTGGG,-0.18
24,GCAAAGTA,0.135
25,TCCCCACA,-0.244

row,Sequence,PBM E-score
1,TTAACTAA,0.223
2,AAGACGGT,-0.0896
3,CCGGTGGC,-0.251
4,ACCTTATC,0.0868
5,AGCCTCAA,-0.105
6,GCCTTCTA,-0.107
7,ATGTACTC,-0.0174
8,ACCCAATG,-0.11
9,ACGGCATC,0.0133
10,GTTTTTGA,0.106
11,CCCACCCG,0.0644
12,AACTTCGT,-0.0392
13,GTTGTGCA,-0.05
14,TCAGCTCA,-0.022
15,CTCCGGTA,-0.0869
16,AAAGTCTG,0.0218
17,CACTGACA,0.0953
18,CTGTTCAC,0.127
19,CATCAATG,-0.00268
20,GTTAGCGA,0.202
21,AAGGAATC,-0.035
22,ACACCTGA,0.139
23,ACAGGCAG,0.068
24,ACACGGCA,-0.073
25,CTCCGCTC,-0.0384

row,Sequence,PBM E-score
1,ATTACCCG,-0.0587
2,ATGCTTCC,-0.0126
3,ACCAAAAA,0.277
4,AACCAAAC,-0.128
5,AGCACACC,-0.14
6,ATTTAGGC,0.115
7,CAGATCTC,-0.111
8,AGGCTCCC,-0.3
9,ATCTAGGG,0.0785
10,TCCAACCA,0.0516
11,ATCGTGCC,0.00144
12,GACGTCTC,-0.122
13,GAGTGAAA,0.0428
14,ATCGCTTC,-0.0152
15,CTTAAGGC,-0.0946
16,GCAAACCA,0.0279
17,CGAGCACG,-0.102
18,AGCGAGAT,0.159
19,GGTTAAAC,0.195
20,CGTAGTTC,-0.281
21,ATTTGGGC,-0.0573
22,GCCGAGGC,-0.0395
23,CTGGAGCC,-0.21
24,AATGGGGT,0.0578
25,ATCCTAGG,-0.134

row,Sequence,PBM E-score
1,CCTACAGA,0.034
2,ACCCCGGT,-0.284
3,AGCCGAAG,-0.0551
4,GAACGTTC,-0.168
5,ATTGCCAC,0.0447
6,AGCGATTA,0.00413
7,GAGCGTAC,-0.0951
8,CTGAAAAG,0.0582
9,CCGTGGCC,-0.154
10,ATCCATGA,-0.00451
11,CAGGACCA,-0.062
12,CCTTGCAC,0.0279
13,CTGAGCAA,-0.131
14,CATGCTCA,0.0168
15,AGCCTTCG,-0.143
16,CATGCCTC,0.0696
17,AGTAGGCC,-0.124
18,AACTGGTC,0.0455
19,GCCGCGTA,-0.0697
20,AGAGGGTG,-0.219
21,CAGGCAGA,-0.0495
22,GTAGCTAA,-0.0001
23,CTAGCGGC,-0.328
24,CGTGAAAG,0.0888
25,ACTGCCCA,-0.107

# Three entries from above, set out differently.
row	Sequence	PBM E-score
1	CCTACAGA	0.034
2	ACCCCGGT	-0.284
21	CAGGCAGA	-0.0495

# Rewritten with tabs: part of the list above.
row	Sequence	PBM E-score
9	GATCGCTA	0.0442
10	GCACTGGA	-0.128
11	AAAGTAGA	0.0361
12	ATGCGGCA	-0.0382
13	ATAATCAA	0.139

# Following part

row,Sequence,PBM E-score
1,ACCAGCTA,0.0261
2,ATTATCCC,0.0831
3,ATGCGCAA,0.0772
4,GTCTGCGA,-0.153
5,AGATGATC,-0.0162
6,AGTCGTCG,-0.184
7,CGTCATTC,0.191
8,TGCAAGCA,-0.143
9,CTAAGTGC,-0.0725
10,CCATAGGG,-0.0755
11,AAAGGCGT,-0.108
12,AACCAAGG,0.147
13,GCCTCAAA,-0.0442
14,GGTTATAA,0.204
15,CAACCACG,0.0756
16,CTGCAGGC,-0.26
17,GCTAAACA,0.018
18,CTATGCCA,-0.0466
19,ATCGTGGA,0.0289
20,GAAGCGAC,-0.00391
21,AAGCCTAT,0.106
22,CGAGGATA,0.0814
